From PubChem BioAssay AID493014 (National Center for Advancing Translational Sciences (NCATS), 2011) come the findings set out here.

In general, AC50 refers to the concentration at which the activity in the assay is half-maximal.

Several values for one entry are separate records, joined by “and”; a condition that tells them apart may be missing. Equal entries are not always repeated. The list shows a part of the results. The main result of the screen is listed elsewhere. These columns were measured beside it and carry no call. Compounds called inactive in the main read-out are mostly missing here. Words in brackets tell the shape of the fitted curve; partial curves, single points and poor fits give uncertain potencies.

The experiment in a line: qHTS Assay to Find Inhibitors of Chronic Active B-Cell Receptor Signaling. The following applies: ABC-DLBCL IkBa-CBG/CBR reporter, luminescence ratio (green luciferase fused to IkBa over red control in TMD8 lymphoma cells), 4 h. In a few lines:
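TMD8 human ABC-DLBCL cells with doxycycline-inducible IκBα–green luciferase fusion and unfused red luciferase, in 0.5% FBS medium; compounds up to 46 uM, 4 h at 37C. Green/red luminescence ratio, filter-overlap corrected, fitted to concentration-response curves.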
In general terms: In qHTS, concentration-response curves come from the screen itself.

Setting [1] is: measured here: CBR red luminescence, cell number.
The mark [2] stands for this setting: measured here: IkBa-CBG green luminescence.

For `Cn1c2c(c(=O)n(C)c1=O)C1(C(=O)Nc3ccccc31)C(C#N)=C(N)O2` (stereo not given), under setting [1], the AC50 was 1.58 µM [falling, partial curve]. On the same count and under the same terms, next, `CCc1nc2cc(Cl)c(Cl)cc2[nH]1`: 3.26 µM [rising, single point]; `O=C(Nc1ccc(Cl)cc1)c1ccc2c(c1)OCO2`: 12.6 µM [falling, partial curve]; `Cc1cccc(NC(=O)CN2CCc3cc4c(cc3C2C)OCCCO4)c1` (stereo not given): 12.6 µM [falling, single point]. On the same count and under the same terms, for `CCN1CCc2c(OCC(=O)Nc3cccc(C)c3)cccc2C1=O` the value was 35.5 µM [falling, single point]; for `COCCNC(=O)CSc1nc2cc(OC)c(OC)cc2c(=O)n1CCC1=CCCCC1`, 29.1 µM [rising, partial curve, poor fit]. Same read-out and setting: next, `CCN(CC)CCN(C(=O)c1ccccc1OC)c1nc2ccc(F)cc2s1`: 35.5 µM [falling, single point].

For `CSc1nnnn1-c1c(C)cc(C)cc1C`, the AC50 under setting [1] was 35.5 µM [rising, single point]. Same read-out and setting: for `O=C1S/C(=C\c2ccc(O)c([N+](=O)[O-])c2)C(=O)N1c1ccccc1Cl` the value was 35.5 µM [falling, single point].

In the case of `CSc1nc(N(C)NC(=O)c2ccccc2)c2ccccc2n1`, the AC50 under setting [1] was 18.4 µM [rising, single point] and the AC50 under setting [2] is 20.6 µM [falling, single point].

With `Cc1nc(Cl)sc1C(=O)Nc1cccc(Cl)c1C`, under setting [1], the AC50 was 0.461 µM [falling, partial curve, poor fit].

With `O=C(Nc1nc2cc3c(cc2s1)OCO3)C1=COCCO1`, the AC50 under setting [1] is 4.61 µM [falling, full curve].

Take `CC(=O)OCC(=O)[C@@]1(O)CC[C@H]2[C@@H]3CCC4=CC(=O)C=C[C@]4(C)[C@H]3[C@@H](O)C[C@@]21C`: the AC50 by setting is: under setting [1], 0.116 µM [rising, full curve]; under setting [2], 2.31 µM [falling, partial curve]. Turning to `Cc1cc2nc(-c3ccc(SCc4ccc(C#N)cc4)nc3)[nH]c2cc1C`, the AC50 under setting [1] was 8.91 µM [falling, partial curve, poor fit].

For the molecule `O=C(Nc1ccc(Cl)c([N+](=O)[O-])c1)C(Sc1ccccc1)c1ccccc1` (stereo not given), the AC50 is, setting by setting: under setting [1], 11.6 µM [falling, partial curve]; under setting [2], 10.3 µM [rising, partial curve, poor fit].

Regarding `COc1cc(CCC(=O)NCc2ccc3c(c2)CCN3C(=O)c2cccc(C)c2)cc(OC)c1OC`, the AC50 under setting [1] was 28.2 µM [falling, partial curve, poor fit]. For the molecule `CCS(=O)(=O)N1CCCC(C(=O)NC2CCCC2)C1` (stereo not given), under setting [1], the AC50 was 3.16 µM [rising, partial curve, poor fit]. For the molecule `Cc1ccc(S(=O)(=O)N(CCC#N)C2CCCCC2)c2nsnc12`, the AC50 under setting [1] is 3.66 µM [rising, partial curve, poor fit]. Turning to `CCOC(=O)c1c(C)[nH]c(C(C)=NNC(=O)c2cccs2)c1C`, the AC50 under setting [1] is 32.6 µM [falling, single point].

Turning to `Cc1ccc2nc(-c3ccccc3)cc(C(=O)O)c2c1`, the AC50 under setting [1] was 7.94 µM [falling, partial curve, poor fit]. For `CCOC(=O)C1=C(c2ccccc2)N=c2s/c(=C\c3cc(OC)c(OC)c(OC)c3)c(=O)n2C1c1cccs1` (stereo not given), the AC50 under setting [1] is 6.31 µM [falling, partial curve, poor fit]. In the case of `CCc1cnc2c(c1SCC(=O)NCc1ccccc1)c(=O)n(C)c(=O)n2C`, the AC50 under setting [1] was 22.4 µM [rising, single point]. Consider `COC(=O)c1sccc1NC(=O)Nc1cc(C)ccc1OC`, for which the AC50 under setting [1] was 15.8 µM [falling, single point].

Consider `Cc1ccc(-c2csc(NC3OC(=O)c4ccccc43)n2)cc1` (stereo not given), for which the AC50 under setting [1] was 5.01 µM [falling, full curve, poor fit]. For `Cc1ccc(O)c(C(=O)c2cc(C#N)c3nc4ccccc4n3c2)c1`, the AC50 under setting [1] was 1.41 µM [rising, partial curve, poor fit].

For `O=C1CC(Nc2ccc(N3CCOCC3)cc2)C(=O)N1CCc1ccccc1` (stereo not given), under setting [1], the AC50 was 2.06 µM [rising, partial curve]. Turning to `Cc1nn(-c2ccccc2)c(C)c1/C=N/NC(=O)CSc1nnc(SCc2ccc(Cl)cc2)s1`, the concentration at half-maximal activity (AC50) under setting [1] was 18.4 µM [falling, partial curve, poor fit]. Turning to `CC1=CCC2C(=O)N(c3cccc(C(=O)NCc4ccccc4)c3)C(=O)C2C1` (stereo not given), the AC50 under setting [1] is 17.8 µM [rising, partial curve, poor fit].

Turning to `Cc1ccc(C(=O)Nc2nnc(C3CCCCC3)s2)o1`, the AC50 under setting [1] was 23.1 µM [falling, partial curve, poor fit].

For `Cc1c(CCOC(=O)CC23CC4CC(CC(C)(C4)C2)C3)sc[n+]1Cc1ccc([N+](=O)[O-])cc1`, the AC50 under setting [1] is 17.8 µM [falling, partial curve, poor fit]. Take `CCOc1ccc(NC(=O)NCc2cccn2C)cc1`: the AC50 under setting [1] was 35.5 µM [falling, single point]. With `COC(=O)C1=C(C)N(Cc2ccccc2)C(=S)N[C@H]1c1ccc(Br)cc1`, the AC50 under setting [1] was 15.8 µM [falling, partial curve, poor fit] and 6.51 µM [falling, partial curve]. Take `COc1ccc(NC(=O)CN(c2ccc([N+](=O)[O-])cc2)S(=O)(=O)c2ccccc2)cc1`: under setting [1], the AC50 is 23.1 µM [falling, single point]. Take `CCOc1ccc(/C=C2/SC(=S)N(C(C(=O)O)c3ccccc3)C2=O)cc1OCC` (stereo not given): the AC50 reads like this: under setting [1], 35.5 µM [falling, single point]; under setting [2], 31.6 µM [rising, partial curve, poor fit]. Take `COCc1ccc(C(=O)NC2CCCc3c2cnn3-c2cc(C)cc(C)c2)s1` (stereo not given): the AC50 under setting [1] was 35.5 µM [falling, partial curve, poor fit].

Turning to `COc1ccccc1C(=O)NCC(c1ccco1)N1CCc2ccccc21` (stereo not given), the AC50 under setting [1] is 16.4 µM [falling, single point].

As to `O=C(Nc1ccccc1F)c1oc2ccccc2c1NC(=O)C1CC1`, the AC50 under setting [1] was 17.8 µM [falling, partial curve, poor fit]. Take `Cc1cc(Nc2cnc3ccccc3n2)n(-c2ccccc2)n1`: the AC50 under setting [1] was 7.94 µM [falling, partial curve]. With `COC(=O)c1ccc(NC(=O)c2ccccc2SC)cc1`, the AC50 under setting [1] was 4.47 µM [falling, partial curve]. Take `O=C(Nc1nccs1)c1cc2c(s1)CCCCC2`: the AC50 under setting [1] was 1.16 µM [falling, partial curve]. The same measure, in the same setting: next, `CC(=O)Nc1ccc(C(=O)OCC(=O)Nc2c(F)cccc2F)cc1`: 11.2 µM [rising, partial curve, poor fit]. `Cc1n[nH]c(C)c1S(=O)(=O)NCCc1ccc(Cl)cc1`: under setting [1], the AC50 is 29.1 µM [falling, single point].

Consider `COc1ccc(/C(C)=N/Nc2ccc(C(=O)O)cc2)c(OC)c1`, for which the AC50 under setting [1] was 0.0291 µM [falling, full curve].

On to `O=C(Nc1ccc2c(c1)oc1ccc(S(=O)(=O)N3CCCC3)cc12)C1CC1`, for which the AC50 under setting [1] is 1.84 µM [rising, partial curve, poor fit]. On to `CCSc1nnc(NC(=O)COc2ccccc2)s1`, for which the AC50 under setting [1] was 18.4 µM [falling, single point]. Same read-out and setting: next, `CC[C@]12c3[nH]c4ccccc4c3CCN1C(=O)C(CC(=O)NCc1ccc(OC)c(OC)c1)C[C@@H]2C(=O)N1CCN(C(=O)C2CC2)CC1` (stereo not given in full): 16.4 µM [falling, single point]; `COc1ccc(/C=C2\Oc3cc(OCC(=O)N4CC(O)C[C@H]4C(=O)O)ccc3C2=O)cc1OC` (stereo not given in full): 10 µM [falling, single point].

With `N#Cc1c(N)oc(-c2cccs2)c1-c1cccs1`, the AC50 under setting [1] is 13 µM [falling, partial curve, poor fit]. For the molecule `O=C(COc1cccc2cccnc12)N/N=C/c1ccccc1O`, the AC50 under setting [1] was 35.5 µM [falling, single point]. Take `CCn1nc(C)c(CN2CCc3c([nH]c4ccccc34)C2c2ccc(F)c(OC)c2)c1C` (stereo not given): under setting [1], the AC50 is 22.4 µM [falling, single point]. Still for that read-out and setting: next, `CN(Cc1ccccc1)S(=O)(=O)c1ccc2c(c1)OCCO2`: 20.6 µM [rising, single point]; `COc1cccc(/C=C2\N=C3CCCCCN3C2=O)c1`: 29.1 µM [falling, single point]. The same measure, in the same setting: next, `COc1cccc(CNC(=O)[C@@H](C)N2C(=O)N3CCc4c([nH]c5ccc(OC)cc45)C3(C)C2=O)c1` (stereo not given in full): 8.91 µM [falling, partial curve, poor fit]. Take `Cc1ccc(Oc2ccc(NC(=O)C3=CC=CN4CCS(=O)(=O)N=C34)cc2)cc1`: under setting [1], the AC50 is 20.6 µM [rising, partial curve, poor fit]. With `C[C@@]12C(=O)Nc3ccc(Cl)cc3C(=O)N1[C@H]1c3ccccc3OC[C@@H]1[C@@H]2c1ccccc1`, the AC50 is 0.92 µM [falling, full curve] under setting [1] and 1.64 µM [rising, full curve, poor fit] under setting [2].

For the molecule `CC(C)(C)c1ccc(Oc2ccc(NC(=O)c3cccs3)cn2)cc1`, the AC50 under setting [1] was 5.01 µM [falling, partial curve, poor fit]. Regarding `Cc1cccc(C)c1OC(=O)C(c1ccccc1)c1ccccc1`, under setting [1], the AC50 was 10.3 µM [rising, partial curve, poor fit].

Turning to `NC(=O)CC1C(=O)N(c2ccc(Cl)cc2)C(=S)N1NC(=O)c1cccc(F)c1` (stereo not given), under setting [1], the AC50 was 1.58 µM [rising, partial curve]. The same measure, in the same setting: for `CCOC(=O)c1cnc2nc(C(F)(F)F)[nH]n2c1=O` the value was 29.1 µM [falling, single point]. As to `COCCCN(C(=S)NC(=O)C12CC3CC(CC(C3)C1)C2)c1c(N)n(Cc2ccccc2)c(=O)[nH]c1=O`, under setting [1], the AC50 was 3.16 µM [rising, partial curve, poor fit].
